Patent publication US11530317B2, “Deep eutectic solvent compositions” (SABIC GLOBAL TECHNOLOGIES B.V., priority 2017, dated 2022)
Some of these results come from one statement about several compounds together. At least one structure is not confirmed: it was looked up by name or label, or the drawing left a doubt.

Assay: Quantification of solubility by visual inspection for undissolved material
Assay type: physicochemical
Settings: ChCl-urea DES

## OC[C@H]1O[C@@H]2O[C@H]3[C@H](O)[C@@H](O)[C@@H](O[C@H]4[C@H](O)[C@@H](O)[C@@H](O[C@H]5[C@H](O)[C@@H](O)[C@@H](O[C@H]6[C@H](O)[C@@H](O)[C@@H](O[C@H]7[C@H](O)[C@@H](O)[C@@H](O[C@H]8[C@H](O)[C@@H](O)[C@@H](O[C@H]1[C@H](O)[C@H]2O)O[C@@H]8CO)O[C@@H]7CO)O[C@@H]6CO)O[C@@H]5CO)O[C@@H]4CO)O[C@@H]3CO [β-CD]
  solubility: > 1000 mg/mL
